Assay results reported in publication PMC12388358.
Residue numbers refer to the chain shown, from its start. The exact form of at least one protein or probe is not confirmed. For part of these data: Protein sequences can lack the tags named with them.

Tests used:
[1] = molecular target: T1, RcsB (UniProt P0DMC7); test: DNase I footprinting; settings: RcsB 20-80 pmol, DNA 1.0 pmol, protects -31 to +54; Footprinting: 10 mM Tris/HCl pH 7.8, 150 mM NaCl, 3 mM Mg acetate, 5 mM CaCl2, 25 ug/mL BSA, 37 C 30 min, digestion at 25 C; recombinant protein; protein details: C-terminal 6xHis; label: 5'-FITC on the CD6R-FITC-R strand; probe letters rebuilt from the primers and the genome
T1 sequence (looked up, limits assumed): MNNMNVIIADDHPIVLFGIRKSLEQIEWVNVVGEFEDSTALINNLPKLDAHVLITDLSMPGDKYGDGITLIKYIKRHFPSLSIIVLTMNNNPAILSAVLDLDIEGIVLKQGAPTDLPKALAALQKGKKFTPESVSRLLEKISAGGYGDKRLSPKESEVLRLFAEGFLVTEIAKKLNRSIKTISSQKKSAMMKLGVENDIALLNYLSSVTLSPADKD

[2] = molecular target: T1, RcsB; test: EMSA; settings: EMSA: standard conditions as cited, recombinant protein, protein details: C-terminal 6xHis, label: 5'-FITC on the CD6R-FITC-R strand, probe letters rebuilt from the primers and the genome
[3] = system: RcsB + H-NS; test: EMSA; settings: RcsB and H-NS together, super-shifted complex, 2.5-40 pmol; EMSA: standard conditions as cited; recombinant protein; protein details: C-terminal 6xHis; label: 5'-FITC on the CD6R-FITC-R strand; probe letters rebuilt from the primers and the genome
[4] = molecular target: T2, RcsB D56N (Escherichia coli K-12 BW25113) (UniProt P0DMC7); test: EMSA; settings: 10-20 pmol, DNA 0.5 pmol; EMSA: standard conditions as cited; recombinant protein; protein details: His; label: 5'-FITC on the CD6R-FITC-R strand; probe letters rebuilt from the primers and the genome
T2 sequence (looked up, limits assumed): T1 sequence (looked up, limits assumed) with D56N

[5] = molecular target: T3, H-NS (Escherichia coli K-12) (UniProt P0ACF8); test: EMSA; settings: H-NS 2.5-40 pmol, DNA 0.5 pmol; EMSA: standard conditions as cited; recombinant protein; label: 5'-FITC on the CD6R-FITC-R strand; probe letters rebuilt from the primers and the genome
T3 sequence (looked up, limits assumed): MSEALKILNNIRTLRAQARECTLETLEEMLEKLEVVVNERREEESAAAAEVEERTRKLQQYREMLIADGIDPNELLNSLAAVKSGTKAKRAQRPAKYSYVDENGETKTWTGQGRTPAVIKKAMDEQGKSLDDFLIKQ

Measured: binding result

GCACTGCTGTGTGTAGTAATAAATCAGCCCTAAATGGGTAAAATATAAAACTAATGGATTACATCTGATTTCAATCTAGCCATTACAAATCTTAAATCAAGTGTTAAACATGTAACTAAATGTAACTCGTTATATTAAAATGTTAACCTTAAGGTTTTATTAAGTTTAGAAATGATAGAAAAGTTGTACATTTGGTTTTTATTGCACAATTTTAAAAAATCATACAAATGGTGATAACTTACTAATAATGCATATAAAAAATATTTCGGTGTAGTCCTTTCGTCATGTAAAACGTTCTTGTTTTTTCTCCACACCTCCGTGGACAATTTTTTACTGCAAAAAGACGAGGTTTGTCACGGCTTGTGCGCAAGACATATCGCAGCAATCAGCGACGGGCAAGAAGAATTCCTGTCT (double strand) [csgD promoter probe (-335 to +67)]
binds: [1] | [2]; 10 mM acetyl phosphate, binding unaffected | [2]; no acetyl phosphate, RcsB 2.5-40 pmol, DNA 0.5 pmol | [3] | [4] | [5]
